Where a chain is given by its changes, count along the chain named. No constants are given. Whether binding was seen depends on the method and setting. Some results given as binding are weak or reduced against the parent protein; the word gives no strength.

Experiment [1] addresses T1, Ehg1-Cub-LV F19A (S. cerevisiae) (UniProt Q06537).
T1 sequence: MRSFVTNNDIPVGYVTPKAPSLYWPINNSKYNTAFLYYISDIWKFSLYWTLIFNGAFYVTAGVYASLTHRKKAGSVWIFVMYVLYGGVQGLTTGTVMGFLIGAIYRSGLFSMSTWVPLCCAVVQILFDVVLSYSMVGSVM
As to the kind of experiment: two-hybrid; split-ubiquitin membrane yeast two-hybrid in strain NMY51; Ehg1 fused to Cub-LexA-VP16 as bait, permease fused to NubG (I3G) as prey; growth for 24 h in SC medium lacking adenine and histidine (ADE2 and HIS3 reporters).

In experiment [2] the target is T2, Ehg1-Cub-LV P17A-P20A (S. cerevisiae) (UniProt Q06537).
T2 sequence: T1 sequence with P17A, A19F, P20A
The experiment is described as above.

B1: NubG-Bap2 (protein, UniProt P38084 1-609)
chain: MLSSEDFGSSGKKETSPDSISIRSFSAGNNFQSSSSEKTYSKQKSGSDKLIHRFADSFKRAEGSTTRTKQINENTSDLEDGVESITSDSKLKKSMKSRHVVMMSLGTGIGTGLLVANAKGLHYGGPAALIIGYILVSFVTYFMIQAAGEMAVTYPTLPANFNAYSSIFISKSFGFATVWLYCFQWLTVLPLELITASMTIQFWNDKINPDIYILIFYVFLVFIHFFGVKAYGETEFIFNCCKILMIAGFIILSIVINCGGAGNDGYIGATYWHNPGAFAGDTSIGRFKNVCYILVTAYFSFGGMELFALSVQEQSNPRKSTPVAAKRSIYRIVVIYLLTMILIGFNVPYNDDQLMGAGGSATHASPYVLAASIHGVKIVPHIINAVILISVVSVANSSLYAGPRLICSLAQQGYAPKFLDYVDREGRPLRALIVCCVFGVIAFVAASSKEEIVFTWLAAIAGLSELFTWTSIMLSHLRFRQAMKVQGRSLDELGYKATTGIWGSIYGVFFNILVFVAQFWVALAPLGNGGKCDAESFFQNYLAFPIWLAFYFGYMVYNRDFTLLNPLDKIDLDFHRRIYDPELMRQEDEENKEKLRNMSLMRKAYHFWC
B1: the binding entry in experiment [1] is “binds”; in experiment [2], “no binding”.

B2: NubG-Hip1 (protein, UniProt P06775 1-603)
chain: MPRNPLKKEYWADVVDGFKPATSPAFENEKESTTFVTELTSKTDSAFPLSSKDSPGINQTTNDITSSDRFRRNEDTEQEDINNTNLSKDLSVRHLLTLAVGGAIGTGLYVNTGAALSTGGPASLVIDWVIISTCLFTVINSLGELSAAFPVVGGFNVYSMRFIEPSFAFAVNLNYLAQWLVLLPLELVAASITIKYWNDKINSDAWVAIFYATIALANMLDVKSFGETEFVLSMIKILSIIGFTILGIVLSCGGGPHGGYIGGKYWHDPGAFVGHSSGTQFKGLCSVFVTAAFSYSGIEMTAVSAAESKNPRETIPKAAKRTFWLITASYVTILTLIGCLVPSNDPRLLNGSSSVDAASSPLVIAIENGGIKGLPSLMNAIILIAVVSVANSAVYACSRCMVAMAHIGNLPKFLNRVDKRGRPMNAILLTLFFGLLSFVAASDKQAEVFTWLSALSGLSTIFCWMAINLSHIRFRQAMKVQERSLDELPFISQTGVKGSWYGFIVLFLVLIASFWTSLFPLGGSGASAESFFEGYLSFPILIVCYVGHKLYTRNWTLMVKLEDMDLDTGRKQVDLTLRREEMRIERETLAKRSFVTRFLHFWC
Turning to B2, the binding result in experiment [1] and in experiment [2] was “binds” throughout.

(Values after PMC6892922.)
